# From the supplement of paper PMC8728848
# The other results are listed elsewhere or left out.
# B1: PGP3 (Chlamydia trachomatis), P0CE18 (protein)
# chain: MGNSGFYLYNTQNCVFADNIKVGQMTEPLKDQQIILGTTSTPVAAKMTASDGISLTVSNNPSTNASITIGLDAEKAYQLILEKLGDQILGGIADTIVDSTVQDILDKITTDPSLGLLKAFNNFPITNKIQCNGLFTPRNIETLLGGTEIGKFTVTPKSSGSMFLVSADIIASRMEGGVVLALVREGDSKPYAISYGYSSGVPNLCSLRTRIINTGLTPTTYSLRVGGLESGVVWVNALSNGNDILGITNTSNVSFLEVIPQTNA
# Key:
# Test in all cases: glycan array binding signal (z-score within array); higher = stronger binding
# Conditions in all cases: glycan notation: IUPAC condensed, linker removed
# [1] = molecular target: Gal(b1-3)[Fuc(a1-4)]GlcNAc(b1-3)Gal(b1-4)GlcNAc
# Procedure, shortened: (§1)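 Negative Z-scores can be read as non-binding. The Z-score is calculated within each array and then averaged across arrays of one protein sequence at different concentrations or buffers and across linkers. Arrays, 3228 in all, were curated from the Consortium for Functional Glycomics database and kept only where the protein sequence was available.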
# [2] = molecular target: Gal(b1-3)[Fuc(a1-4)]GlcNAc(b1-3)Gal(b1-4)[Fuc(a1-3)]GlcNAc
# Procedure, shortened: as §1
# [3] = molecular target: Gal(b1-3)[GlcNAc(b1-6)]GalNAc
# Procedure, shortened: as §1
# [4] = molecular target: Gal(b1-3)[Neu5Ac(a2-6)]GalNAc
# Procedure, shortened: as §1
# [5] = molecular target: Gal(b1-3)[Neu5Ac(a2-6)]GlcNAc(b1-6)Gal(b1-4)Glc
# Procedure, shortened: as §1
# [6] = molecular target: Gal(b1-3)[Neu5Ac(b2-6)]GalNAc
# Procedure, shortened: as §1
# Gal(b1-4)Gal = molecular target: Gal(b1-4)Gal
# Procedure, shortened: as §1
# [7] = molecular target: Gal(b1-4)GalNAc(a1-3)[Fuc(a1-2)]Gal(b1-4)GlcNAc
# Procedure, shortened: as §1
# [8] = molecular target: Gal(b1-4)GalNAc(b1-3)[Fuc(a1-2)]Gal(b1-4)GlcNAc
# Procedure, shortened: as §1
# Gal(b1-4)Glc = molecular target: Gal(b1-4)Glc
# Procedure, shortened: as §1
# Gal(b1-4)Glc6S = molecular target: Gal(b1-4)Glc6S
# Procedure, shortened: as §1
# Gal(b1-4)GlcNAc = molecular target: Gal(b1-4)GlcNAc
# Procedure, shortened: as §1
# [9] = molecular target: Gal(b1-4)GlcNAc(a1-6)Gal(b1-4)GlcNAc
# Procedure, shortened: as §1
# Gal(b1-4)GlcNAc(b1-2)Man = molecular target: Gal(b1-4)GlcNAc(b1-2)Man
# Procedure, shortened: as §1
# [10] = molecular target: Gal(b1-4)GlcNAc(b1-2)Man(a1-3)Man(b1-4)GlcNAc(b1-4)GlcNAc
# Procedure, shortened: as §1
# [11] = molecular target: Gal(b1-4)GlcNAc(b1-2)Man(a1-3)[Gal(b1-4)GlcNAc(b1-2)Man(a1-6)]Man(b1-4)GlcNAc(b1-4)GlcNAc
# Procedure, shortened: as §1
# [12] = molecular target: Gal(b1-4)GlcNAc(b1-2)Man(a1-3)[Gal(b1-4)GlcNAc(b1-2)Man(a1-6)]Man(b1-4)GlcNAc(b1-4)[Fuc(a1-6)]GlcNAc
# Procedure, shortened: as §1
# [13] = molecular target: Gal(b1-4)GlcNAc(b1-2)Man(a1-3)[Gal(b1-4)GlcNAc(b1-2)][GlcNAc(b1-4)]Man(b1-4)GlcNAc(b1-4)GlcNAc
# Procedure, shortened: as §1
# [14] = molecular target: Gal(b1-4)GlcNAc(b1-2)Man(a1-3)[GlcNAc(b1-2)Man(a1-6)]Man(b1-4)GlcNAc(b1-4)GlcNAc
# Procedure, shortened: as §1
# [15] = molecular target: Gal(b1-4)GlcNAc(b1-2)Man(a1-3)[Man(a1-6)]Man(b1-4)GlcNAc(b1-4)GlcNAc
# Procedure, shortened: as §1
# [16] = molecular target: Gal(b1-4)GlcNAc(b1-2)Man(a1-6)Man(b1-4)GlcNAc(b1-4)GlcNAc
# Procedure, shortened: as §1
# [17] = molecular target: Gal(b1-4)GlcNAc(b1-2)Man(a1-6)[GlcNAc(b1-2)Man(a1-3)]Man(b1-4)GlcNAc(b1-4)GlcNAc
# Procedure, shortened: as §1
# [18] = molecular target: Gal(b1-4)GlcNAc(b1-2)Man(a1-6)[Man(a1-3)]Man(b1-4)GlcNAc(b1-4)GlcNAc
# Procedure, shortened: as §1
# [19] = molecular target: Gal(b1-4)GlcNAc(b1-2)[Gal(b1-4)GlcNAc(b1-4)]Man(a1-3)[Gal(b1-4)GlcNAc(b1-2)Man(a1-6)]Man(b1-4)GlcNAc(b1-4)GlcNAc
# Procedure, shortened: as §1
# [20] = molecular target: Gal(b1-4)GlcNAc(b1-2)[Gal(b1-4)GlcNAc(b1-4)]Man(a1-3)[Gal(b1-4)GlcNAc(b1-2)[Gal(b1-4)GlcNAc(b1-6)]Man(a1-6)]Man(b1-4)GlcNAc(b1-4)GlcNAc
# Procedure, shortened: as §1
# [21] = molecular target: Gal(b1-4)GlcNAc(b1-2)[Gal(b1-4)GlcNAc(b1-4)]Man(a1-3)[GlcNAc(b1-4)][Gal(b1-4)GlcNAc(b1-2)Man(a1-6)]Man(b1-4)GlcNAc(b1-4)GlcNAc
# Procedure, shortened: as §1
# [22] = molecular target: Gal(b1-4)GlcNAc(b1-2)[Gal(b1-4)GlcNAc(b1-4)]Man(a1-3)[GlcNAc(b1-4)][Gal(b1-4)GlcNAc(b1-2)[Gal(b1-4)GlcNAc(b1-6)]Man(a1-6)]Man(b1-4)GlcNAc(b1-4)GlcNAc
# Procedure, shortened: as §1
# [23] = molecular target: Gal(b1-4)GlcNAc(b1-2)[Gal(b1-4)GlcNAc(b1-6)]Man(a1-6)[Gal(b1-4)GlcNAc(b1-2)Man(a1-3)]Man(b1-4)GlcNAc(b1-4)GlcNAc
# Procedure, shortened: as §1
# [24] = molecular target: Gal(b1-4)GlcNAc(b1-2)[Gal(b1-4)GlcNAc(b1-6)]Man(a1-6)[GlcNAc(b1-4)][Gal(b1-4)GlcNAc(b1-2)Man(a1-3)]Man(b1-4)GlcNAc(b1-4)GlcNAc
# Procedure, shortened: as §1
# [25] = molecular target: Gal(b1-4)GlcNAc(b1-3)Gal(b1-3)GlcNAc
# Procedure, shortened: as §1
# [26] = molecular target: Gal(b1-4)GlcNAc(b1-3)Gal(b1-4)Glc
# Procedure, shortened: as §1
# [27] = molecular target: Gal(b1-4)GlcNAc(b1-3)Gal(b1-4)GlcNAc
# Procedure, shortened: as §1
# [28] = molecular target: Gal(b1-4)GlcNAc(b1-3)Gal(b1-4)GlcNAc(b1-3)Gal(b1-4)GlcNAc
# Procedure, shortened: as §1
# [29] = molecular target: Gal(b1-4)GlcNAc(b1-3)Gal(b1-4)[Fuc(a1-3)GlcNAc(b1-6)]Gal(b1-4)Glc
# Procedure, shortened: as §1
# [30] = molecular target: Gal(b1-4)GlcNAc(b1-3)Gal(b1-4)[Fuc(a1-3)]GlcNAc(b1-3)Gal(b1-4)[Fuc(a1-3)]GlcNAc
# Procedure, shortened: as §1
# [31] = molecular target: Gal(b1-4)GlcNAc(b1-3)GalNAc
# Procedure, shortened: as §1
# [32] = molecular target: Gal(b1-4)GlcNAc(b1-3)[Gal(b1-4)GlcNAc(b1-6)]Gal(b1-4)GlcNAc
# Procedure, shortened: as §1
binder,measurement,setting,value
B1,glycan array binding signal (z-score),[1],0.457
same,glycan array binding signal (z-score),[2],-0.395
same,glycan array binding signal (z-score),[3],0.242
same,glycan array binding signal (z-score),[4],-0.547
same,glycan array binding signal (z-score),[5],1.51
same,glycan array binding signal (z-score),[6],0.119
same,glycan array binding signal (z-score),Gal(b1-4)Gal,0.247
same,glycan array binding signal (z-score),[7],0.271
same,glycan array binding signal (z-score),[8],-0.442
same,glycan array binding signal (z-score),Gal(b1-4)Glc,-0.194
same,glycan array binding signal (z-score),Gal(b1-4)Glc6S,-0.713
same,glycan array binding signal (z-score),Gal(b1-4)GlcNAc,-0.548
same,glycan array binding signal (z-score),[9],0.562
same,glycan array binding signal (z-score),Gal(b1-4)GlcNAc(b1-2)Man,-0.69
same,glycan array binding signal (z-score),[10],0.214
same,glycan array binding signal (z-score),[11],-0.357
same,glycan array binding signal (z-score),[12],0.715
same,glycan array binding signal (z-score),[13],1.19
same,glycan array binding signal (z-score),[14],-0.296
same,glycan array binding signal (z-score),[15],0.121
same,glycan array binding signal (z-score),[16],-0.363
same,glycan array binding signal (z-score),[17],0.379
same,glycan array binding signal (z-score),[18],0.095
same,glycan array binding signal (z-score),[19],-1.24
same,glycan array binding signal (z-score),[20],-0.226
same,glycan array binding signal (z-score),[21],-1.51
same,glycan array binding signal (z-score),[22],-1.75
same,glycan array binding signal (z-score),[23],0.201
same,glycan array binding signal (z-score),[24],0.579
same,glycan array binding signal (z-score),[25],0.53
same,glycan array binding signal (z-score),[26],-0.67
same,glycan array binding signal (z-score),[27],-1.29
same,glycan array binding signal (z-score),[28],1.21
same,glycan array binding signal (z-score),[29],-0.022
same,glycan array binding signal (z-score),[30],0.322
same,glycan array binding signal (z-score),[31],-1.53
same,glycan array binding signal (z-score),[32],-0.365

# A different layout for some results above:
binder	measurement	setting	value
B1	glycan array binding signal (z-score)	[19]	-1.24
same	glycan array binding signal (z-score)	[23]	0.201
same	glycan array binding signal (z-score)	[26]	-0.67
